In assay [1] the target is T1, FLAG-EGFP-hRpn2 (940–947) (human).
T1 sequence: QEPEPPEP
Put plainly: co-IP; anti-FLAG immunoprecipitation from lysates of HCT116 cells expressing FLAG-EGFP constructs; immunoblot for endogenous hRpn13.

By UniProt entry, the sequences of proteins in these tests, tags left out.
UniProt Q16186: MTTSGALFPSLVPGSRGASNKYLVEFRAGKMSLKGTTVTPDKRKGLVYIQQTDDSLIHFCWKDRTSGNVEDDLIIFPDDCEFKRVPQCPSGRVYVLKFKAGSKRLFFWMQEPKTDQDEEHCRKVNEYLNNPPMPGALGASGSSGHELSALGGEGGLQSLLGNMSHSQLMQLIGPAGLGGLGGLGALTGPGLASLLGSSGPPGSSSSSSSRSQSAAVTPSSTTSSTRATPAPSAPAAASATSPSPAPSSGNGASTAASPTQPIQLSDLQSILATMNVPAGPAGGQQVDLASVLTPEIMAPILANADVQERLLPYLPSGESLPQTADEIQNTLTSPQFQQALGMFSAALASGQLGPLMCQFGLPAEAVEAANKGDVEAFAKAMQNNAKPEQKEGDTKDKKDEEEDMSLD

Assay [2] concerns the target hRpt3 (a member of the proteasome ATPase ring) (human (endogenous in HCT116)) (UniProt P43686). Kind of assay: co-IP; anti-hRpt3 immunoprecipitation of proteasomes from lysates of HCT116 cells treated with 1 μM RA190 for 24 h or DMSO; immunoblot. On the technique in general: A western blot detects proteins with antibodies after separation by electrophoresis.
For assay [3] the target is unchanged. Kind of assay: co-IP; anti-hRpt3 immunoprecipitation from lysates of HCT116 cells expressing FLAG-EGFP (control) or FLAG-EGFP-hRpn2 (940–953); immunoblot for hRpn13.

These are yes or no findings as the source states them, for the method shown. Binding seen in cells or lysates may run through a third protein. Some entries that bind do so weakly or less than the wild type. For part of these data: Tags and fused reporters may be left off the sequences shown.

With “endogenous hRpn13 (from UniProt Q16186 1-407)”, the values for the binding result in assay [1], in assay [2] and in assay [3] were “no binding”, “binds” and “binds”, respectively.

(Values after paper PMC5494190.)
